US20230312724A1
Substitutions are numbered along the chain they refer to. These are yes or no findings as the source states them, for the method shown. Some results given as binding are weak or reduced against the parent protein; the word gives no strength.

By UniProt entry, the sequences of proteins in these tests, tags left out. Where a name states a change or a piece, a line headed by the entry shows the natural chain unless it says otherwise.
UniProt Q7Z7D3: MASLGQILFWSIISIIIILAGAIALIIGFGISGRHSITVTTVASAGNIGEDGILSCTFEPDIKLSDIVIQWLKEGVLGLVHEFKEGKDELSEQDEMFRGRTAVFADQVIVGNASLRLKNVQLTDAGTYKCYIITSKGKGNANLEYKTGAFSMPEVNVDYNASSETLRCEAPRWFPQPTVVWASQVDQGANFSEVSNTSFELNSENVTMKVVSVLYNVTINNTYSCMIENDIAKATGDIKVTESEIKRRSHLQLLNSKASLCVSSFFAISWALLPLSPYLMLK
UniProt Q7TSP5: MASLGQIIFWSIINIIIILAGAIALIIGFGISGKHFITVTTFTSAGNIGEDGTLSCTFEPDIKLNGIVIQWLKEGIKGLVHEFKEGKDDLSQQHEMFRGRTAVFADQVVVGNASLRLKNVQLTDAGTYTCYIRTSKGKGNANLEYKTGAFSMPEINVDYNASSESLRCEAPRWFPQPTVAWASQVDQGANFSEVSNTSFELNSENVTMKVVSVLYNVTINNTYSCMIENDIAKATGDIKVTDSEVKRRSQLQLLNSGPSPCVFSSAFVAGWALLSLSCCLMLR

Experiments:
[1] = biological target: IgV domain of human B7-H4-Fc (human); assay: ELISA
[2] = biological target: IgV domain of mouse B7-H4-Fc (mouse; human); assay: ELISA
[3] = biological target: hB7-H4 (soluble human B7-H4, construct not named) (human) (UniProt Q7Z7D3); assay: summary of ELISA and flow cytometry
[4] = biological target: mB7-H4 (soluble mouse B7-H4, construct not named) (mouse) (UniProt Q7TSP5); assay: summary of ELISA and flow cytometry
human B7-H4-Fc (human) [5] = assay: ELISA, coated hB7-H4-Fc
[6] = biological target: IgV domain of human B7-H4-Fc (human); assay: ELISA, coated hB7-H4 IgV domain
[7] = biological target: IgV domain of mouse B7-H4-Fc (mouse; human); assay: ELISA, coated mB7-H4 IgV domain
[8] = biological target: IgV domain of human B7-H4-Fc (human); assay: ELISA (FIG. 8)
[9] = biological target: IgV domain of mouse B7-H4-Fc (mouse; human); assay: ELISA (FIG. 8)
mouse B7-H4-his (mouse) [10] = biological target: mouse B7-H4-his (mouse) (UniProt Q7TSP5); assay: ELISA, coated mB7-H4-his
human B7-H4-his (human) [11] = biological target: human B7-H4-his (human) (UniProt Q7Z7D3); assay: ELISA, coated hB7-H4-his
[12] = biological target: hB7-H4 (soluble human B7-H4, construct not named) (human) (UniProt Q7Z7D3); assay: SPR (Biacore)
[13] = biological target: mB7-H4 (soluble mouse B7-H4, construct not named) (mouse) (UniProt Q7TSP5); assay: SPR (Biacore)
mouse B7-H4-his (mouse) [14] = biological target: mouse B7-H4-his (mouse) (UniProt Q7TSP5); assay: ELISA on coated mB7-H4-his
[15] = biological target: IgV domain of human B7-H4-Fc (human); assay: ELISA on coated IgV domain of hB7-H4
[16] = biological target: IgV domain of mouse B7-H4-Fc (mouse; human); assay: ELISA on coated IgV domain of mB7-H4
[17] = biological target: mB7-H4 (soluble mouse B7-H4, construct not named) (mouse) (UniProt Q7TSP5); assay: ELISA (FIG. 16)
[18] = biological target: IgV domain of human B7-H4-Fc (human); assay: ELISA (FIG. 16)
[19] = biological target: IgV domain of human B7-H4-Fc (human); assay: ELISA (FIG. 14)
[20] = biological target: IgV domain of mouse B7-H4-Fc (mouse; human); assay: ELISA (FIG. 14)
human B7-H4-Fc (human) [21] = assay: ELISA on coated hB7-H4-Fc
human B7-H4-his (human) [22] = biological target: human B7-H4-his (human) (UniProt Q7Z7D3); assay: ELISA on coated hB7-H4-his
[23] = biological target: IgV domain of human B7-H4-Fc (human); assay: ELISA (FIG. 9)
[24] = biological target: hB7-H4 (soluble human B7-H4, construct not named) (human) (UniProt Q7Z7D3); assay: ELISA
[25] = biological target: human B7-H4 expressed on cells (human) (UniProt Q7Z7D3); assay: flow cytometry, CHO cells expressing hB7-H4
[26] = biological target: human B7-H4 expressed on cells (human) (UniProt Q7Z7D3); assay: flow cytometry, CHO-hB7-H4
[27] = biological target: human B7-H4 expressed on cells (human) (UniProt Q7Z7D3); assay: flow cytometry, hB7H4 stable cells (CHO)
[28] = biological target: human B7-H4 expressed on cells (human) (UniProt Q7Z7D3); assay: flow cytometry
[29] = biological target: IgC domain of human B7-H4-Fc (human); assay: ELISA
[30] = biological target: IgC domain of mouse B7-H4-Fc (mouse; human); assay: ELISA
[31] = biological target: IgC domain of human B7-H4-Fc (human); assay: ELISA, coated hB7-H4 IgC domain
[32] = biological target: IgC domain of human B7-H4-Fc (human); assay: ELISA (FIG. 7)
[33] = biological target: IgC domain of mouse B7-H4-Fc (mouse; human); assay: ELISA (FIG. 7)
[34] = biological target: IgC domain of mouse B7-H4-Fc (mouse; human); assay: ELISA, coated mB7-H4 IgC domain
human B7-H4-Fc (human) [35] = assay: ELISA
[36] = biological target: human B7-H4 expressed on cells (human) (UniProt Q7Z7D3); assay: flow cytometry, SK-BR-3 cells

Measured: binding

B1: 39A11/39A11 (antibody, human IgG1, V domains shown)
VH: EVQLLESGGGLVQPGGSLRLSCAASGFTFSSYGMHWVRQAPGKGLEWVASISSSSGYIYYADSVKGRFTISRDNSKNTLYLQMNSLRAEDTAVYYCARASSGMDVWGQGTTVTVSS
VL: DIQMTQSPSSLSASVGDRVTITCRASQTIRSYLNWYQQKPGKAPKLLIYAASHLQSGVPSRFSGSGSGTDFTLTISSLQPEDFATYYCQQSYTTPYTFGQGTKLEIK
binds: [1] | [2] | [3] | [4] | human B7-H4-Fc (human) [5] | [6] | [7] | [8] | [9] | mouse B7-H4-his (mouse) [10] | human B7-H4-his (human) [11] | [12] | [13]

B2: 39A11/57G8 (antibody, human IgG1, V domains shown)
VH: B1 VH
VL: B1 VL with T28S, A50Y, H53S, S91Y, T93S, Y96L, L104V
binds: human B7-H4-Fc (human) [5] | mouse B7-H4-his (mouse) [14] | [15] | [6] | [16] | [7] | [17] | [18] | [19] | [20] | human B7-H4-Fc (human) [21] | human B7-H4-his (human) [22]

B3: 3F2/50A10 (antibody, human IgG1, V domains shown)
VH: QVQLVQSGAEVKKPGASVKVSCKASGYTFTAQYMYWVRQAPGQGLEWMGRINPTSGNTVYAQKLQGRVTMTRDTSTSTVYMELSSLRSEDTAVYYCARGINWFDPWGQGTLVTVSS
VL: B1 VL with R24Q, T28D, R30S, S31N, L33I, H53R, T93R, T94S, Y96F
binds: human B7-H4-Fc (human) [5] | [23] | [15] | [6] | [18] | human B7-H4-his (human) [11] | human B7-H4-Fc (human) [21] | human B7-H4-his (human) [22]

B4: 6C3/6C3 (antibody, human IgG1, V domains shown)
VH: EVQLLESGGGLVQPGGSLRLSCAASGFTFSSYAMHWVRQAPGKGLEWVASISGTGFTTRYADSVKGRFTISRDNSKNTLYLQMNSLRAEDTAVYYCARGGWFRDTPVDYWGQGTLVTVSS
VL: DIVMTQSPLSLPVTPGEPASISCRSSQSLLHSNGYNYLDWYLQKPGQSPQLLIYGASSLRSGVPDRFSGSGSGTDFTLKISRVEAZDVGVYYCMQASHWPPTFGQGTRLEIK
binds: [24] | [1] | [3] | [25] | human B7-H4-Fc (human) [5] | [26] | [6] | [27] | human B7-H4-his (human) [11] | [28]

B5: 24F4/24F4 (antibody, human IgG1, V domains shown)
VH: QVQLVQSGAEVKKPGSSVKVSCKASGYRFTGDYIHWVRQAPGQGLEWMGWMNPNSGNTGLAQKFQGRVTITADESTSTAYMELSSLRSEDTAVYYCARVLGFSGGMDVWGQGTTVTVSS
VL: B4 VL with G55A, Z86E, A96G, S97T, R108K
binds: [29] | [30] | [31] | [3] | [4] | human B7-H4-Fc (human) [5] | [32] | [33] | mouse B7-H4-his (mouse) [10] | human B7-H4-his (human) [11] | [34]

B6: 30G4/30G4 (antibody, human IgG1, V domains shown)
VH: QVQLVQSGAEVKKPGASVKVSCKASGYTFSSYYMHWVRQAPGQGLEWMGWMNPNSGDTGYAQKFQGRVTMTRDTSTSTVYMELSSLRSEDTAVYYCARVPETGGMDVWGQGTTVTVSS
VL: B4 VL with R60H, Z86E, A96G, S97T, R108K, L109V
binds: [29] | [30] | [31] | [3] | [4] | human B7-H4-Fc (human) [5] | [32] | [33] | mouse B7-H4-his (mouse) [10] | human B7-H4-his (human) [11] | [34]

B7: Control antibody 1 (antibody 20502 described in US20190085080A1) (antibody, V domains shown)
VH: QLQLQESGPGLVKPSETLSLTCTVSGGSIKSGSYYWGWIRQPPGKGLEWIGNIYYSGSTYYNPSLRSRVTISVDTSKNQFSLKLSSVTAADTAVYYCAREGSYPNQFDPWGQGTLVTVSS
VL: EIVMTQSPATLSVSPGERATLSCRASQSVSSNLAWYQQKPGQAPRLLIYGASTRATGIPARFSGSGSGTEFTLTISSLQSEDFAVYYCQQYHSFPFTFGGGTKVEIK
binds: human B7-H4-Fc (human) [5] | mouse B7-H4-his (mouse) [14] | [15] | [6] | [16] | [7] | mouse B7-H4-his (mouse) [10] | human B7-H4-his (human) [11] | human B7-H4-Fc (human) [21] | human B7-H4-his (human) [22]

B8: 4B9/4B9 (antibody, human IgG1, V domains shown)
VH: QVQLVQSGAEVKKPGASVKVSCKASGYTFTSYYMHWVRQAPGQGLEWMGWMNPNSGNTGYAQKFQGRVTMTRDTSTSTVYMELSSLRSEDTAVYYCARGQGRYLNYYYMDVWGKGTTVTVSS
VL: DIQMTQSPSSLSASVGDRVTITCRVSQGISNYLAWYQQKPGKAPKLLIYDASSLQSGVPSRFSGSGSGTDFTLTISSLQPEDFATYYCQQSYSTPFTFGPGTKVDIK
binds: human B7-H4-Fc (human) [35] | [3] | human B7-H4-Fc (human) [5]

B9: 3F2/49A2 (antibody, human IgG1, V domains shown)
VH: B3 VH
VL: DIQMTQSPSSLSASVGDRVTITCRASQNIDTYVNWYQQKPGKAPKLLIYAASRLHTVPSRFSGSGSGTDFTLTISSLQPEDFATYYCQQSYTSPFTFGGGTKVEIK
binds: [25] | human B7-H4-Fc (human) [5] | [23] | [6] | [36] | human B7-H4-his (human) [11] | [28]
